At least one structure is not confirmed: it was looked up by name or label, or the drawing left a doubt.
Test system: NCI-H929 cells
Assay: Western blot of cell lysates
Type: cell-based, human
Details: 0.01 μM each, 3 days
Procedure: Western blot analysis was used to determine the levels of proteins involved in cell cycle and differentiation. […] After centrifugation at 15,000×g for 15 min at 4° C., the suspension was collected. Protein concentrations were quantitated using the Bio-Rad assay (Bio-Rad Labolatories, Hercules, Calif.). […] The blots were developed using the Supersignal West Pico Chemiluminescent Substrate Kit (Pierce, Rockford, Ill.). In FIG. 3C, NCI-H929 cells were treated with either paricalcitol (10^−7M) or 1,25(OH)2D3 (10^−7M) and cell lysates were prepared after 72 hrs. Cell lysates were used for Western blot analysis and probed sequentially with antibodies to p27KIP1, Bcl-2 and Bax. Control cells were treated with vehicle alone. Amount of protein was normalized by comparison to the amount of GAPDH. […] The Bcl-2 and Bax antibodies were obtained from Santa Cruz Biotechnology Inc., Santa Cruz, Calif.

C[C@@H]1C[C@H]2[C@@H]3CCC4=CC(=O)C=C[C@]4(C)[C@@]3(F)[C@@H](O)C[C@]2(C)[C@@]1(O)C(=O)CO [dexamethasone]
expression of Bcl-2 and p27^KIP1: down-regulated

— patent US20050054620A1, “Paricalcitol as a chemotherapeutic agent” (priority 2003, published 2005)
